{"sequences": {"note": "Sequences of proteins named here, by UniProt entry; tags and fusion partners are left off. A change or cut given only in a name is not applied to a line headed by its entry.", "UniProt B7ELI9": "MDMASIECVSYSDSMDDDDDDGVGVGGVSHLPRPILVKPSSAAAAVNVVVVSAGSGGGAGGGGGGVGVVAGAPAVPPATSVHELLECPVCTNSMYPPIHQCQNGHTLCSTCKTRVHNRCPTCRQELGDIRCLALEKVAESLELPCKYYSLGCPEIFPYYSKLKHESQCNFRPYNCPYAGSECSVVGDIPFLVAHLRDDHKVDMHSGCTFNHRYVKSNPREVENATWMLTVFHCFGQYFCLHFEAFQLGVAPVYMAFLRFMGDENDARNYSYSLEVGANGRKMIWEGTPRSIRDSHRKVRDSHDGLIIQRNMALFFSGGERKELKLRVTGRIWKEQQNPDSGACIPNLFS", "UniProt Q60EU0": "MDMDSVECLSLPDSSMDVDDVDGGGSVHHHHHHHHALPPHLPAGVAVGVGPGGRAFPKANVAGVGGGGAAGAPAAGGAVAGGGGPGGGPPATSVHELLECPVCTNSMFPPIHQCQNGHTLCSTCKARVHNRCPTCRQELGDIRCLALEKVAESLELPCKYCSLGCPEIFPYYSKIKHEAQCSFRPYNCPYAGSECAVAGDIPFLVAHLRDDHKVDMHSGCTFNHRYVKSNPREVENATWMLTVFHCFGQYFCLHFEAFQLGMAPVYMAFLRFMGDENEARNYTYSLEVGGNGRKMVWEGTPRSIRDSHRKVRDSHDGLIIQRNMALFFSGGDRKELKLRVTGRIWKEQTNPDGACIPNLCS", "UniProt B7F5A8": "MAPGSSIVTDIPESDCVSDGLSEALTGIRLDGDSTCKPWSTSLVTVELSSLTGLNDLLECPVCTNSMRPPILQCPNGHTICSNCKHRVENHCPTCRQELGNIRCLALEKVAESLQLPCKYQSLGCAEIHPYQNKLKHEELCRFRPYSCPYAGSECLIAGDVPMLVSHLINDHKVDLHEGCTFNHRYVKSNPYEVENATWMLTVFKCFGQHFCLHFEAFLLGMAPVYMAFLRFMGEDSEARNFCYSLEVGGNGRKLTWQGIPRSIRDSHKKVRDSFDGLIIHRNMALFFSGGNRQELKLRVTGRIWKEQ", "UniProt B7F029": "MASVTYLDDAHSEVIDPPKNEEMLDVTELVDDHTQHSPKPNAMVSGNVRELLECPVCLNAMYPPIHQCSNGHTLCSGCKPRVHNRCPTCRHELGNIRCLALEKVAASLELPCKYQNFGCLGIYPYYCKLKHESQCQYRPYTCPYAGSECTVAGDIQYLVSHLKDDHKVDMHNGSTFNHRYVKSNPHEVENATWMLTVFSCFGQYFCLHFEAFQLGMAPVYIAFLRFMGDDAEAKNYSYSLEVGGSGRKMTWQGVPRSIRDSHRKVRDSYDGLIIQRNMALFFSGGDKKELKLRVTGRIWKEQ"}, "source": "paper PMC8786996", "key": {"[1]": {"biological_target": "full-length RIP1 as yeast two-hybrid fusion (AD-RIP1 prey; BK-RIP1 bait) (rice) (UniProt B7ELI9)", "assay": "two-hybrid; direct bait-prey pairs: baits in pGBKT7 (GAL4 DNA-binding domain), preys in pGADT7, co-transformed into S. cerevisiae AH109, spotted on selective media with X-gal"}, "[2]": {"biological_target": "full-length RIP2 fused to a half of YFP, in tobacco leaves (rice) (UniProt Q60EU0)", "assay": "split reporter; BiFC with nYFP and cYFP fusions co-transformed into Nicotiana benthamiana leaves by Agrobacterium; confocal microscopy after 24-36 h in the dark"}, "[3]": {"biological_target": "full-length RIP4 fused to a half of YFP, in tobacco leaves (rice) (UniProt B7F5A8)", "assay": "split reporter; BiFC with nYFP and cYFP fusions co-transformed into Nicotiana benthamiana leaves by Agrobacterium; confocal microscopy after 24-36 h in the dark"}, "[4]": {"biological_target": "full-length RMD fused to cYFP (RMD-cYFP), in tobacco leaves (rice) (UniProt Q84ZL0)", "assay": "split reporter; BiFC with nYFP and cYFP fusions co-transformed into Nicotiana benthamiana leaves by Agrobacterium; confocal microscopy after 24-36 h in the dark"}, "[5]": {"biological_target": "T1, full-length RIP5 fused to a half of YFP, in tobacco leaves (rice) (UniProt Q10L91)", "T1 sequence": "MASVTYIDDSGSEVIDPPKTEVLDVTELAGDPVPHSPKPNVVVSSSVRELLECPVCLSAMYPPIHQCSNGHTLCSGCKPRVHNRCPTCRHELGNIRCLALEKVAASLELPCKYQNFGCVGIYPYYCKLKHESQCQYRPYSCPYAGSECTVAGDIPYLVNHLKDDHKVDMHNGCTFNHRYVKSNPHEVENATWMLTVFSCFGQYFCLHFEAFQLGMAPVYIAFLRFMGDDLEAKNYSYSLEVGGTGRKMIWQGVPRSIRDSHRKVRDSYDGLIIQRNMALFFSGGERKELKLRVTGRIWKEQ", "assay": "split reporter; BiFC with nYFP and cYFP fusions co-transformed into Nicotiana benthamiana leaves by Agrobacterium; confocal microscopy after 24-36 h in the dark"}, "[6]": {"biological_target": "T2, RMD P3 fragment (aa 338-821) fused to the GAL4 DNA-binding domain (BK-P3) (rice) (UniProt Q84ZL0)", "T2 sequence": "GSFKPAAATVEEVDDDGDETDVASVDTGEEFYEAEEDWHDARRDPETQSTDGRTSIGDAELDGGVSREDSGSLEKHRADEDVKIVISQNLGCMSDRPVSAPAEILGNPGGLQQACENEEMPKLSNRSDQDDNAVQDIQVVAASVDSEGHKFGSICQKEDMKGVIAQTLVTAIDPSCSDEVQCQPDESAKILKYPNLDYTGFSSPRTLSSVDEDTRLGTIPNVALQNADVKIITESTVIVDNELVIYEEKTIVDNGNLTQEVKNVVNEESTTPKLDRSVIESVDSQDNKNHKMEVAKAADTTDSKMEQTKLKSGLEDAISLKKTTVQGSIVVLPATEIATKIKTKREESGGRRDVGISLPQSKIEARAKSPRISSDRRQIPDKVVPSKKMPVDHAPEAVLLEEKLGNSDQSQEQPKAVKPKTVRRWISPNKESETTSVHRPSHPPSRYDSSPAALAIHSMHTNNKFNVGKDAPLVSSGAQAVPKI", "assay": "two-hybrid; direct bait-prey pairs: baits in pGBKT7 (GAL4 DNA-binding domain), preys in pGADT7, co-transformed into S. cerevisiae AH109, spotted on selective media with X-gal"}, "[7]": {"biological_target": "T3, RMD N-terminal P2 fragment (821 amino acids) fused to the GAL4 DNA-binding domain (BK-P2) (rice) (UniProt Q84ZL0)", "T3 sequence": "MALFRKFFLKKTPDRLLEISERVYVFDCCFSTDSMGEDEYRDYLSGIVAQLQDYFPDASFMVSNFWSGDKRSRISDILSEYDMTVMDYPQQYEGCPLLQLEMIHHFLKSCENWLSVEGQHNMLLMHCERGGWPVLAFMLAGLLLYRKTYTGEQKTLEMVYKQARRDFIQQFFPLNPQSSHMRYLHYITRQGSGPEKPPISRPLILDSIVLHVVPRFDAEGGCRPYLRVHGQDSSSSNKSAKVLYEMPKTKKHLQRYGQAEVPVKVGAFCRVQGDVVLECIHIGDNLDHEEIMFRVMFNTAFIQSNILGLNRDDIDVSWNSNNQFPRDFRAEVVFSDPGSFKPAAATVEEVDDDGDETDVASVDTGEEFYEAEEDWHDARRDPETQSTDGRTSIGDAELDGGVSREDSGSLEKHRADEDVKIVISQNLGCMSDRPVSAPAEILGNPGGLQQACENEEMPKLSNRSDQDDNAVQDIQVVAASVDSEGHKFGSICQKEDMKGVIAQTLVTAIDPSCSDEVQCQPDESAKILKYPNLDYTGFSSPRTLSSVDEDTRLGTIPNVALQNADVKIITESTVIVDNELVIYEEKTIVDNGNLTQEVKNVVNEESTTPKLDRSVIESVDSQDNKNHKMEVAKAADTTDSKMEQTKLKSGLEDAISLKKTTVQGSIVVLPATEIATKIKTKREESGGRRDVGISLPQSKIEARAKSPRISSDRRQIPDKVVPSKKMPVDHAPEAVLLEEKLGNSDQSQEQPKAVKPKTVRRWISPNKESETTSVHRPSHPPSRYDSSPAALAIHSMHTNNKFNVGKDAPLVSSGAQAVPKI", "assay": "two-hybrid; direct bait-prey pairs: baits in pGBKT7 (GAL4 DNA-binding domain), preys in pGADT7, co-transformed into S. cerevisiae AH109, spotted on selective media with X-gal"}, "[8]": {"biological_target": "full-length RIP2 fused to a half of YFP, in tobacco leaves (rice) (UniProt Q60EU0)", "assay": "split reporter; BiFC with nYFP and cYFP fusions co-transformed into Nicotiana benthamiana leaves by Agrobacterium; confocal microscopy after 24-36 h in the dark", "remark": "listed apart in the source"}, "[9]": {"biological_target": "full-length RIP4 fused to a half of YFP, in tobacco leaves (rice) (UniProt B7F5A8)", "assay": "split reporter; BiFC with nYFP and cYFP fusions co-transformed into Nicotiana benthamiana leaves by Agrobacterium; confocal microscopy after 24-36 h in the dark", "remark": "listed apart in the source"}}, "note": "Where two headings read alike, the source gives them in different places. No constants are given. Whether binding was seen depends on the method and setting. Binding calls can cover weak binding; strength is not graded here. For some assays here: Sequences can lack the tags named with a protein. For some assays here: Binding seen in cells or lysates may run through a third protein."}
{"molecule": "SIAH domain of RIP2 fused to the GAL4 activation domain (AD-SIAH2) (from UniProt Q60EU0) (domain or fragment)", "values": [{"measurement": "binding", "setting": "[1]", "value": "binds"}]}
{"molecule": "full-length RIP6 fused to a half of YFP, in tobacco leaves (from UniProt B7F029)", "values": [{"measurement": "binding", "setting": "[2]", "value": "binds"}, {"measurement": "binding", "setting": "[3]", "value": "binds"}, {"measurement": "binding", "setting": "[4]", "value": "binds"}, {"measurement": "binding", "setting": "[5]", "value": "binds"}]}
{"molecule": "SIAH domain of RIP6 fused to the GAL4 activation domain (AD-SIAH6) (from UniProt B7F029) (domain or fragment)", "values": [{"measurement": "binding", "setting": "[1]", "value": "binds"}]}
{"molecule": "SIAH domain of RIP4 fused to the GAL4 activation domain (AD-SIAH4) (from UniProt B7F5A8) (domain or fragment)", "values": [{"measurement": "binding", "setting": "[1]", "value": "binds"}]}
{"molecule": "SIAH domain of RIP3 fused to the GAL4 activation domain (AD-SIAH3) (from UniProt Q5NAX7) (domain or fragment)", "values": [{"measurement": "binding", "setting": "[1]", "value": "binds"}]}
{"molecule": "full-length RIP1 as yeast two-hybrid fusion (AD-RIP1 prey; BK-RIP1 bait) (from UniProt B7ELI9)", "values": [{"measurement": "binding", "setting": "[6]", "value": "binds"}]}
{"molecule": "full-length RIP4 fused to a half of YFP, in tobacco leaves (from UniProt B7F5A8)", "values": [{"measurement": "binding", "setting": "[2]", "value": "binds"}, {"measurement": "binding", "setting": "[4]", "value": "binds"}]}
{"molecule": "full-length RIP2 fused to a half of YFP, in tobacco leaves (from UniProt Q60EU0)", "values": [{"measurement": "binding", "setting": "[4]", "value": "binds"}]}
{"molecule": "SIAH domain of RIP5 fused to the GAL4 activation domain (AD-SIAH5) (rice) (domain or fragment)", "values": [{"measurement": "binding", "setting": "[7]", "value": "binds"}]}
{"molecule": "SIAH domain of RIP1 fused to the GAL4 activation domain (AD-SIAH1) (from UniProt B7ELI9) (domain or fragment)", "values": [{"measurement": "binding", "setting": "[6]", "value": "binds"}, {"measurement": "binding", "setting": "[1]", "value": "binds"}]}
{"molecule": "full-length RIP5 fused to a half of YFP, in tobacco leaves (protein, UniProt Q10L91 1-301) MASVTYIDDSGSEVIDPPKTEVLDVTELAGDPVPHSPKPNVVVSSSVRELLECPVCLSAMYPPIHQCSNGHTLCSGCKPRVHNRCPTCRHELGNIRCLALEKVAASLELPCKYQNFGCVGIYPYYCKLKHESQCQYRPYSCPYAGSECTVAGDIPYLVNHLKDDHKVDMHNGCTFNHRYVKSNPHEVENATWMLTVFSCFGQYFCLHFEAFQLGMAPVYIAFLRFMGDDLEAKNYSYSLEVGGTGRKMIWQGVPRSIRDSHRKVRDSYDGLIIQRNMALFFSGGERKELKLRVTGRIWKEQ", "values": [{"measurement": "binding", "setting": "[8]", "value": "binds"}, {"measurement": "binding", "setting": "[9]", "value": "binds"}]}
